Results deposited as PubChem BioAssay AID1259327 (Drosophila RNAi Screening Center, 2017)
Here is one part, drawn at random, of about 3,100 reagents tested. 378 of all reagents (12%) were called active. 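Hits include both directions; z-score sign shows ATP rise or fall; raw luminescence values are not plate-normalised.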 Entries without a mark were called inactive. Reagents against one gene are numbered here. A plus sign joins genes that one reagent is predicted to hit. Not given: the amount of reagent.

Test: 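Knock-downs altering cellular ATP with no metal added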
System: Drosophila S2R+ cells
Reagents: long dsRNA against Drosophila genes
Time to read-out: 5 days (water added on day 4, read one day later)
Challenge: water added as vehicle, no metal, one day before read-out
Detection: 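Luciferase ATP signal per well, normalised to plate mean, duplicate average converted to z-score across plates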
Reading the numbers: ATP z-score: higher = more total ATP than typical wells; ATP luminescence: higher = more total ATP
Active means: 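a hit is any knock-down whose absolute ATP z-score is greater than 1.5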
Calls: active = hit: ATP up or down; inactive = no clear ATP change

Gene	reagent no.	ATP z-score, duplicate mean	ATP luminescence, replicate 1 (RLU)	ATP luminescence, replicate 2 (RLU)
ttv (tout-velu)	1	-0.114	7.41e5	6.96e5
ttv (tout-velu)	2	0.941	9.98e5	9.36e5
CG16781	1	0.697	7.74e5	8.39e5
CG16781	2	2.33 (active)	9.82e5	1.11e6
Toll-7	1	0.562	9.42e5	8.43e5
Toll-7	2	-1.87 (active)	4.69e5	3.75e5
nac (neuronally altered carbohydrate)	1	-0.759	2.34e5	7.60e5
Esp (Epidermal stripes and patches)	1	-1.46	2.18e5	6.44e5
Cds + Setx	1	-1.49	9.11e5	1.02e6
gcl (germ cell-less)	1	1.58 (active)	7.85e5	1.02e6
gcl (germ cell-less)	2	-1.08	9.46e5	1.02e6
CG1090	1	-1.18	5.14e5	4.45e5
Or7a (Odorant receptor 7a)	1	1.2	5.97e5	7.07e5
drd (drop dead)	1	0.309	6.18e5	7.53e5
drd (drop dead)	2	-1.84 (active)	8.44e5	1.22e6
ppk (pickpocket)	1	-0.273	7.12e5	6.82e5
ppk (pickpocket)	2	-0.571	7.88e5	7.71e5
Gr61a (Gustatory receptor 61a)	1	-1.17	4.91e5	5.36e5
Gr61a (Gustatory receptor 61a)	2	-0.628	3.87e5	4.87e5
Desat1 (Desaturase 1)	1	-3.23 (active)	4.58e5	4.41e5
Ror	1	0.244	7.55e5	7.50e5
Ror	2	-0.508	4.94e5	5.80e5
Ror	3	1.05	6.85e5	6.52e5
Cln3	1	-0.284	8.72e5	8.46e5
Cln3	2	0.204	1.11e6	1.07e6
CG33203	1	-0.122	5.34e5	7.15e5
CG33203	2	-0.947	7.50e5	6.71e5
Or83c (Odorant receptor 83c)	1	-0.736	8.75e5	7.27e5
Or83c (Odorant receptor 83c)	2	2.42 (active)	6.44e5	5.84e5
OtopLb (Otopetrin-like b)	1	-0.579	3.78e5	5.04e5
OtopLb (Otopetrin-like b)	2	0.143	9.81e5	9.98e5
Gr97a (Gustatory receptor 97a)	1	2.15 (active)	1.14e6	1.21e6
CG12061	1	0.0437	7.54e5	7.40e5
CG12061	2	-0.705	3.51e5	5.13e5
Ir11a (Ionotropic receptor 11a)	1	-0.0328	6.27e5	6.72e5
Ir11a (Ionotropic receptor 11a)	2	-0.793	4.19e5	3.82e5
CG32263	1	0.206	8.84e5	8.68e5
CG32263	2	0.239	8.60e5	8.43e5
rumpel	1	1.69 (active)	6.94e5	7.59e5
rumpel	2	-2.25 (active)	3.27e5	2.83e5
COX4 (Cytochrome c oxidase subunit 4)	1	-1.63 (active)	3.18e5	4.15e5
COX4 (Cytochrome c oxidase subunit 4)	2	-1.89 (active)	5.68e5	6.63e5
Prip	1	0.488	7.64e5	8.03e5
Prip	2	-1.19	9.82e5	1.14e6
ACXE (Adenylyl cyclase X E)	1	0.499	7.74e5	7.84e5
CR32011 + CR32009 + PlexB + 1 more	1	-1.11	5.22e5	4.48e5
CR32011 + CR32009 + PlexB + 1 more	2	1.05	1.13e6	8.29e5
